According to PMC3521698:
These are yes or no findings as the source states them, for the method shown. Binding seen in cells or lysates may run through a third protein. Some entries that bind do so weakly or less than the wild type.

Protein sequences, listed by entry. Tags and fused reporters are not part of them.
UniProt Q04206: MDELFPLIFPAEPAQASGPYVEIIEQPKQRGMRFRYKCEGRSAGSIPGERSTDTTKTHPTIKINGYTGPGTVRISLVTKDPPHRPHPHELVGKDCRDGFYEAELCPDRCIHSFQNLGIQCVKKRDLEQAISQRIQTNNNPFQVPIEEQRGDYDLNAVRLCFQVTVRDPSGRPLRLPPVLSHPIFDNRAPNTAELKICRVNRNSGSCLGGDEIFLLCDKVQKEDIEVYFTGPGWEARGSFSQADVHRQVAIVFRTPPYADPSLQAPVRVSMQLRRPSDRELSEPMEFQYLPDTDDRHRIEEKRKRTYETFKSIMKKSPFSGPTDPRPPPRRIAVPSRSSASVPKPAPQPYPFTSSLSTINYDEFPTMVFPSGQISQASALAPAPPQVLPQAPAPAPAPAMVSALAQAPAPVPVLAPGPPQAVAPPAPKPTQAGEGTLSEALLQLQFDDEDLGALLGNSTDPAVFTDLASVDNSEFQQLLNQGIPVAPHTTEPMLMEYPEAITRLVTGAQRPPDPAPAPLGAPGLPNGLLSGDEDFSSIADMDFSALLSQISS

Key:
[1] = biological target: FLAG-tagged RelA (human), Q04206; assay: co-IP; settings: remark: other sources report otherwise
FLAG-tagged RelA (human) = FLAG-tagged RelA (human) (UniProt Q04206); assay: co-IP

binding [1] | binding (FLAG-tagged RelA (human)) | Binder
binds |  | p100, Q00653-1 1-900 (protein) MESCYNPGLDGIIEYDDFKLNSSIVEPKEPAPETADGPYLVIVEQPKQRGFRFRYGCEGPSHGGLPGASSEKGRKTYPTVKICNYEGPAKIEVDLVTHSDPPRAHAHSLVGKQCSELGICAVSVGPKDMTAQFNNLGVLHVTKKNMMGTMIQKLQRQRLRSRPQGLTEAEQRELEQEAKELKKVMDLSIVRLRFSAFLRASDGSFSLPLKPVISQPIHDSKSPGASNLKISRMDKTAGSVRGGDEVYLLCDKVQKDDIEVRFYEDDENGWQAFGDFSPTDVHKQYAIVFRTPPYHKMKIERPVTVFLQLKRKRGGDVSDSKQFTYYPLVEDKEEVQRKRRKALPTFSQPFGGGSHMGGGSGGAAGGYGGAGGGGSLGFFPSSLAYSPYQSGAGPMGCYPGGGGGAQMAATVPSRDSGEEAAEPSAPSRTPQCEPQAPEMLQRAREYNARLFGLAQRSARALLDYGVTADARALLAGQRHLLTAQDENGDTPLHLAIIHGQTSVIEQIVYVIHHAQDLGVVNLTNHLHQTPLHLAVITGQTSVVSFLLRVGADPALLDRHGDSAMHLALRAGAGAPELLRALLQSGAPAVPQLLHMPDFEGLYPVHLAVRARSPECLDLLVDSGAEVEATERQGGRTALHLATEMEELGLVTHLVTKLRANVNARTFAGNTPLHLAAGLGYPTLTRLLLKAGADIHAENEEPLCPLPSPPTSDSDSDSEGPEKDTRSSFRGHTPLDLTCSTKVKTLLLNAAQNTMEPPLTPPSPAGPGLSLGDTALQNLEQLLDGPEAQGSWAELAERLGLRSLVDTYRQTTSPSGSLLRSYELAGGDLAGLLEALSDMGLEEGVRLLRGPETRDKLPSTAEVKEDSAYGSQSVEQEAEKLGPPPEPPGGLCHGHPQPQVH
 | binds | c-Rel (protein, UniProt Q04864 1-619) MASGAYNPYIEIIEQPRQRGMRFRYKCEGRSAGSIPGEHSTDNNRTYPSIQIMNYYGKGKVRITLVTKNDPYKPHPHDLVGKDCRDGYYEAEFGQERRPLFFQNLGIRCVKKKEVKEAIITRIKAGINPFNVPEKQLNDIEDCDLNVVRLCFQVFLPDEHGNLTTALPPVVSNPIYDNRAPNTAELRICRVNKNCGSVRGGDEIFLLCDKVQKDDIEVRFVLNDWEAKGIFSQADVHRQVAIVFKTPPYCKAITEPVTVKMQLRRPSDQEVSESMDFRYLPDEKDTYGNKAKKQKTTLLFQKLCQDHVETGFRHVDQDGLELLTSGDPPTLASQSAGITVNFPERPRPGLLGSIGEGRYFKKEPNLFSHDAVVREMPTGVSSQAESYYPSPGPISSGLSHHASMAPLPSSSWSSVAHPTPRSGNTNPLSSFSTRTLPSNSQGIPPFLRIPVGNDLNASNACIYNNADDIVGMEASSMPSADLYGISDPNMLSNCSVNMMTTSSDSMGETDNPRLLSMNLENPSCNSVLDPRDLRQLHQMSSSSMSAGANSNTTVFVSQSDAFEGSDFSCADNSMINESGPSNSTNPNSHGFVQDSQYSGIGSMQNEQLSDSFPYEFFQV
 | binds | p52 (protein, UniProt Q00653 1-454) MESCYNPGLDGIIEYDDFKLNSSIVEPKEPAPETADGPYLVIVEQPKQRGFRFRYGCEGPSHGGLPGASSEKGRKTYPTVKICNYEGPAKIEVDLVTHSDPPRAHAHSLVGKQCSELGICAVSVGPKDMTAQFNNLGVLHVTKKNMMGTMIQKLQRQRLRSRPQGLTEAEQRELEQEAKELKKVMDLSIVRLRFSAFLRASDGSFSLPLKPVISQPIHDSKSPGASNLKISRMDKTAGSVRGGDEVYLLCDKVQKDDIEVRFYEDDENGWQAFGDFSPTDVHKQYAIVFRTPPYHKMKIERPVTVFLQLKRKRGGDVSDSKQFTYYPLVEDKEEVQRKRRKALPTFSQPFGGGSHMGGGSGGAAGGYGGAGGGGSLGFFPSSLAYSPYQSGAGPMGCYPGGGGGAQMAATVPSRDSGEEAAEPSAPSRTPQCEPQAPEMLQRAREYNARLFGLA
binds |  | RelB, Q01201 1-579 (protein) MLRSGPASGPSVPTGRAMPSRRVARPPAAPELGALGSPDLSSLSLAVSRSTDELEIIDEYIKENGFGLDGGQPGPGEGLPRLVSRGAASLSTVTLGPVAPPATPPPWGCPLGRLVSPAPGPGPQPHLVITEQPKQRGMRFRYECEGRSAGSILGESSTEASKTLPAIELRDCGGLREVEVTACLVWKDWPHRVHPHSLVGKDCTDGICRVRLRPHVSPRHSFNNLGIQCVRKKEIEAAIERKIQLGIDPYNAGSLKNHQEVDMNVVRICFQASYRDQQGQMRRMDPVLSEPVYDKKSTNTSELRICRINKESGPCTGGEELYLLCDKVQKEDISVVFSRASWEGRADFSQADVHRQIAIVFKTPPYEDLEIVEPVTVNVFLQRLTDGVCSEPLPFTYLPRDHDSYGVDKKRKRGMPDVLGELNSSDPHGIESKRRKKKPAILDHFLPNHGSGPFLPPSALLPDPDFFSGTVSLPGLEPPGGPDLLDDGFAYDPTAPTLFTMLDLLPPAPPHASAVVCSGGAGAVVGETPGPEPLTLDSYQAPGPGDGGTASLVGSNMFPNHYREAAFGGGLLSPGPEAT
binds |  | IκBα (endogenous), P25963 1-317 (protein) MFQAAERPQEWAMEGPRDGLKKERLLDDRHDSGLDSMKDEEYEQMVKELQEIRLEPQEVPRGSEPWKQQLTEDGDSFLHLAIIHEEKALTMEVIRQVKGDLAFLNFQNNLQQTPLHLAVITNQPEIAEALLGAGCDPELRDFRGNTPLHLACEQGCLASVGVLTQSCTTPHLHSILKATNYNGHTCLHLASIHGYLGIVELLVSLGADVNAQEPCNGRTALHLAVDLQNPDLVSLLLKCGADVNRVTYQGYSPYQLTWGRPSTRIQQQLGQLTLENLQMLPESEDEESYDTESEFTEFTEDELPYDDCVFGGQRLTL
